According to paper PMC3561343:
Results are given in words; binding and its absence hold for the method and conditions named. In cells and extracts the contact can be indirect. Some results given as binding are weak or reduced against the parent protein; the word gives no strength.

The chains behind the UniProt entries cited, without tags or fusion partners.
UniProt P31749: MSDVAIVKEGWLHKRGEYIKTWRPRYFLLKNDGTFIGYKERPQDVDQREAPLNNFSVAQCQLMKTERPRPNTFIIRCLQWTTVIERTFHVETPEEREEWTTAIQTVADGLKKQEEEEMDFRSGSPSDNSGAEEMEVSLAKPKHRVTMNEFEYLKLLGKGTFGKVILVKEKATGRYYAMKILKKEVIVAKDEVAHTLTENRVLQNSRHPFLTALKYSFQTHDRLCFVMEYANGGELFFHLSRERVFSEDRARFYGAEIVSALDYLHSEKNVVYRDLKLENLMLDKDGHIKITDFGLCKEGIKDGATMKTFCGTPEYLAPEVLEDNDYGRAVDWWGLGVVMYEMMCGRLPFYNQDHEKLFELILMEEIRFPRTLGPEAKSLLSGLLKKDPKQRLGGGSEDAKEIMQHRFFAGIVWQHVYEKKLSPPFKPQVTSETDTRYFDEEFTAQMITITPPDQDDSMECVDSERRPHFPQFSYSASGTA
UniProt P25963: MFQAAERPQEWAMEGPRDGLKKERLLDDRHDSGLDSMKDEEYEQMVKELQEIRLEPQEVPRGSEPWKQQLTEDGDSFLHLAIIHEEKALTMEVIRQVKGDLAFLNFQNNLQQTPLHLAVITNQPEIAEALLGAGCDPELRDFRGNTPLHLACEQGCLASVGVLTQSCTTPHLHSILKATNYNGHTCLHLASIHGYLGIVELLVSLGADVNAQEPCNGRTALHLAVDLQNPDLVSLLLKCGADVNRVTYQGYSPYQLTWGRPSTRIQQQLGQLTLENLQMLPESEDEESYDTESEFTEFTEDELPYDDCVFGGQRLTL
UniProt P38936: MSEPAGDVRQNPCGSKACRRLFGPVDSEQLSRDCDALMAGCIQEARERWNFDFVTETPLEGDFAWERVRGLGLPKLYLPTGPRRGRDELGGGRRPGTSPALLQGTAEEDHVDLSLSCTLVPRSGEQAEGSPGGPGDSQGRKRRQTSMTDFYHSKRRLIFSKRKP
UniProt P46527: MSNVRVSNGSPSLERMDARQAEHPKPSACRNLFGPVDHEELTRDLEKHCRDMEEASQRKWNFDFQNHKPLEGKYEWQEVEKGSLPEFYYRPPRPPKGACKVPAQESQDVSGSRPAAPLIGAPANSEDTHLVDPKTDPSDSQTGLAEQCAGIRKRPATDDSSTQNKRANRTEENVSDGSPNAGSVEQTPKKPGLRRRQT

B1: Bcl-2-associated death promoter (BAD) (protein, UniProt Q92934 1-168)
chain: MFQIPEFEPSEQEDSSSAERGLGPSPAGDGPSGSGKHHRQAPGLLWDASHQQEQPTSSSHHGGAGAVEIRSRHSSYPAGTEDDEGMGEEPSPFRGRSRSAPPNLWAAQRYGRELRRMSDEFVDSFKKGLPRPKSAGTATQMRQSSSWTRVFQSWWDRNLGRGSSAPSQ
B2: programmed cell death 4 (PDCD4) (protein, UniProt Q53EL6 1-469)
chain: MDVENEQILNVNPADPDNLSDSLFSGDEENAGTEEIKNEINGNWISASSINEARINAKAKRRLRKNSSRDSGRGDSVSDSGSDALRSGLTVPTSPKGRLLDRRSRSGKGRGLPKKGGAGGKGVWGTPGQVYDVEEVDVKDPNYDDDQENCVYETVVLPLDERAFEKTLTPIIQEYFEHGDTNEVAEMLRDLNLGEMKSGVPVLAVSLALEGKASHREMTSKLLSDLCGTVMSTTDVEKSFDKLLKDLPELALDTPRAPQLVGQFIARAVGDGILCNTYIDSYKGTVDCVQARAALDKATVLLSMSKGGKRKDSVWGSGGGQQSVNHLVKEIDMLLKEYLLSGDISEAEHCLKELEVPHFHHELVYEAIIMVLESTGESTFKMILDLLKSLWKSSTITVDQMKRGYERIYNEIPDINLDVPHSYSVLERFVEECFQAGIISKQLRDLCPSRGRKRFVSEGDGGRLKPESY

target: VCP-Flag (valosin-containing protein, wild type) (UniProt P55072); assay: co-IP; AGS cells expressing VCP-Flag, Tri-mut VCP-Flag or empty vector, incubated with H. pylori (6 hr), with MG-132 or LY294002 pretreatment in some panels; lysate precipitated with anti-Flag M2 affinity gel 4 hr at 4°C; immunoblot of the precipitate

**Q.** How did the binding turn out when Akt (from UniProt P31749 1-480) was run?
**A.** binds

**Q.** With IκBα (from UniProt P25963 1-317) as the molecule, how does the binding read?
**A.** binds

**Q.** p21^Cip1 (from UniProt P38936 1-164) was tested. Which binding did it give?
**A.** binds

**Q.** With p27^kip1 (from UniProt P46527 1-198) as the molecule, how does the binding read?
**A.** binds

**Q.** How did the binding turn out when B1 was run?
**A.** binds

**Q.** Which binding does the source give for B2 here?
**A.** binds
